Test results reported in patent publication US20160318897A1, “AZOLE COMPOUNDS CARRYING AN IMINE-DERIVED SUBSTITUENT” (BASF SE, priority 2013, published 2016).
Some of these results come from one statement about several compounds together.

Legend:
Format in all cases: in vivo
Heliothis virescens = assay: Tobacco budworm (Heliothis virescens) microtiter plate insect diet test; conditions: at 2500 ppm; egg and larval mortality after 5 days
Experimental: B.5 Tobacco Budworm (Heliothis virescens)
For evaluating control of tobacco budworm (Heliothis virescens) the test unit consisted of 96-well-microtiter plates containing an insect diet and 15-25 H. virescens eggs.
The compounds were formulated using a solution containing 75% v/v water and 25% v/v DMSO. Different concentrations of formulated compounds were sprayed onto the insect diet at 10 μl, using a custom built micro atomizer, at two replications.
(§1) After application, microtiter plates were incubated at about 28±1° C. and about 80±5% relative humidity for 5 days. Egg and larval mortality was then visually assessed.

Nephotettix virescens = assay: Rice green leafhopper (Nephotettix virescens) spray test on rice seedlings; conditions: at 500 ppm; adults, after 72 hours
Experimental: B.7 Rice Green Leafhopper (Nephotettix virescens)
Rice seedlings were cleaned and washed 24 hours before spraying. The active compounds were formulated in 1:1 acetone:water (vol:vol), and 0.01% vol/vol surfactant (Kinetic HV) was added. Potted rice seedlings were sprayed with 5-6 ml test solution, air dried, covered with Mylar cages cages and inoculated with 10 adults. Treated rice plants were kept at about 28-29° C. and relative humidity of about 50-60%. Percent mortality was recorded after 72 hours.

Anthonomus grandis = assay: Boll weevil (Anthonomus grandis) microtiter plate insect diet test; conditions: at 2500 ppm; egg and larval mortality after 5 days
Experimental: B.1 Boll Weevil (Anthonomus grandis)
For evaluating control of boll weevil (Anthonomus grandis) the test unit consisted of 96-well-microtiter plates containing an insect diet and 5-10 A. grandis eggs.
(§2) The compounds were formulated using a solution containing 75% v/v water and 25% v/v DMSO. Different concentrations of formulated compounds were sprayed onto the insect diet at 5 μl, using a custom built micro atomizer, at two replications.
After application, microtiter plates were incubated at about 25±1° C. and about 75±5% relative humidity for 5 days. Egg and larval mortality was then visually assessed.

Myzus persicae = assay: Green peach aphid (Myzus persicae) systemic test, artificial diet under membrane; conditions: at 2500 ppm; adult aphids, after 3 days
Description: B.6 Green Peach Aphid (Myzus persicae)
For evaluating control of green peach aphid (Myzus persicae) through systemic means the test unit consisted of 96-well-microtiter plates containing liquid artificial diet under an artificial membrane.
The compounds were formulated using a solution containing 75% v/v water and 25% v/v DMSO. Different concentrations of formulated compounds were pipetted into the aphid diet, using a custom built pipetter, at two replications.
After application, 5-8 adult aphids were placed on the artificial membrane inside the microtiter plate wells. The aphids were then allowed to suck on the treated aphid diet and incubated at about 23±1° C. and about 50±5% relative humidity for 3 days. Aphid mortality and fecundity was then visually assessed.

Dichromothrips corbetti = assay: Orchid thrips (Dichromothrips corbetti) floral-immersion test; conditions: at 500 ppm; adult thrips, 72 hours after treatment
Experimental: B.2 Orchid Thrips (Dichromothrips Corbetti)
Dichromothrips corbetti adults used for bioassay were obtained from a colony maintained continuously under laboratory conditions. For testing purposes, the test compound is diluted in a 1:1 mixture of acetone:water (vol:vol), plus Kinetic HV at a rate of 0.01% v/v.
Thrips potency of each compound was evaluated by using a floral-immersion technique. All petals of individual, intact orchid flowers were dipped into treatment solution and allowed to dry in Petri dishes. Treated petals were placed into individual resealable plastic along with about 20 adult thrips. All test arenas were held under continuous light and a temperature of about 28° C. for duration of the assay. After 3 days, the numbers of live thrips were counted on each petal. The percent mortality was recorded 72 hours after treatment.

Plutella xylostella = assay: Diamond back moth (Plutella xylostella) cabbage leaf dip test; conditions: at 500 ppm; 3rd instar larvae, 72 hours after treatment
Experimental: B.8 Diamond Back Moth (Plutella xylostella)
The active compound is dissolved at the desired concentration in a mixture of 1:1 (vol:vol) distilled water:aceteone. Surfactant (Kinetic HV) is added at a rate of 0.01% (vol/vol). The test solution is prepared at the day of use.
Leaves of cabbage were dipped in test solution and air-dried. Treated leaves were placed in petri dishes lined with moist filter paper and inoculated with ten 3rd instar larvae. Mortality was recorded 72 hours after treatment. Feeding damages were also recorded using a scale of 0-100%.

Ceratitis capitata = assay: Mediterranean fruitfly (Ceratitis capitata) microtiter plate insect diet test; conditions: at 2500 ppm; egg and larval mortality after 5 days
Experimental: B.4 Mediterranean Fruitfly (Ceratitis capitata)
For evaluating control of Mediterranean fruitfly (Ceratitis capitata) the test unit consisted of microtiter plates containing an insect diet and 50-80 C. capitata eggs.
as §2, §1

Spodoptera eridania = assay: Southern armyworm (Spodoptera eridania), 2nd instar larvae, foliar spray on lima bean; conditions: at 300 ppm, 4 days after treatment
Experimental: B.9 Southern Armyworm (Spodoptera eridania), 2nd Instar Larvae
The active compounds were formulated by a Tecan liquid handler in 100% cyclohexanone as a 10,000 ppm solution supplied in tubes. The 10,000 ppm solution was serially diluted in 100% cyclohexanone to make interim solutions. These served as stock solutions for which final dilutions were made by the Tecan in 50% acetone:50% water (v/v) into 5 or 10 ml glass vials. A nonionic surfactant (Kinetic®) was included in the solution at a volume of 0.01% (v/v). The vials were then inserted into an automated electrostatic sprayer equipped with an atomizing nozzle for application to plants/insects.
Lima bean plants (variety Sieva) were grown 2 plants to a pot and selected for treatment at the 1st true leaf stage. Test solutions were sprayed onto the foliage by an automated electrostatic plant sprayer equipped with an atomizing spray nozzle. The plants were dried in the sprayer fume hood and then removed from the sprayer. Each pot was placed into perforated plastic bags with a zip closure. About 10 to 11 armyworm larvae were placed into the bag and the bags zipped closed. Test plants were maintained in a growth room at about 25° C. and about 20-40% relative humidity for 4 days, avoiding direct exposure to fluorescent light (24 hour photoperiod) to prevent trapping of heat inside the bags. Mortality and reduced feeding were assessed 4 days after treatment, compared to untreated control plants.

Aphis craccivora = assay: Cowpea aphid (Aphis craccivora) spray test on potted cowpea plants; conditions: at 500 ppm; after 72 hours
Experimental: B.3 Cowpea Aphid (Aphis Craccivora)
The active compound is dissolved at the desired concentration in a mixture of 1:1 (vol:vol) distilled water:acetone. Surfactant (Kinetic HV) is added at a rate of 0.01% (vol/vol). The test solution is prepared at the day of use.
Potted cowpea plants were colonized with approximately 50-100 aphids of various stages by manually transferring a leaf tissue cut from infested plant 24 hours before application. Plants were sprayed after the pest population has been recorded. Treated plants are maintained on light carts at about 28° C. Percent mortality was assessed after 72 hours.

Measured: mortality in comparison with untreated controls

CON=C(c1ccccc1)c1nn(-c2ccc(Cl)c(Cl)c2)cc1CN1CCC(C#N)CC1 (single isomer, unassigned) [IA-11]
over 75%: Heliothis virescens

CCON=Cc1nn(-c2ccc(Cl)c(Cl)c2)cc1CN1CCC(C#N)CC1 [IA-3]
not listed: Aphis craccivora
over 75%: all other assays above

N#CC1CCN(Cc2cn(-c3ccc(Cl)c(Cl)c3)nc2C=NOCc2ccccc2)CC1 [IA-4]
over 75%: Aphis craccivora

CON=Cc1nn(-c2ccc(C(F)(F)F)cc2)cc1CN1CCC(C#N)CC1 [IA-5]
not listed: Aphis craccivora
over 75%: all other assays above

CCON=Cc1nn(-c2ccc(C(F)(F)F)cc2)cc1CN1CCC(C#N)CC1 [IA-6]
over 75%: Heliothis virescens | Anthonomus grandis | Plutella xylostella | Ceratitis capitata | Spodoptera eridania

N#CC1CCN(Cc2cn(-c3ccc(C(F)(F)F)cc3)nc2C=NOCc2ccccc2)CC1 [IA-7]
over 75%: Spodoptera eridania

N#CC1CCN(Cc2cn(-c3ccc(C(F)(F)F)cc3)nc2C=NOCC(F)(F)F)CC1 [IA-8]
over 75%: Heliothis virescens | Anthonomus grandis | Plutella xylostella | Ceratitis capitata | Spodoptera eridania

CON=C(C)c1nn(-c2ccc(Cl)c(Cl)c2)cc1CN1CCC(C#N)CC1 [IA-10]
over 75%: Heliothis virescens | Spodoptera eridania
